Among the data in article PMC3653909 are binding values, retold here.

Test in all cases: fluorescent three hybrid assay (F3H); BHK cells with a lac operator array cotransfected with GBP-lacI, GFP-bait and Ch-prey; the bait is anchored to the array and colocalization of the prey at the array is scored; cells fixed and imaged 16 h after transfection
Test [1] addresses T1, Cxxc5 (mouse) (UniProt Q91WA4).
T1 sequence: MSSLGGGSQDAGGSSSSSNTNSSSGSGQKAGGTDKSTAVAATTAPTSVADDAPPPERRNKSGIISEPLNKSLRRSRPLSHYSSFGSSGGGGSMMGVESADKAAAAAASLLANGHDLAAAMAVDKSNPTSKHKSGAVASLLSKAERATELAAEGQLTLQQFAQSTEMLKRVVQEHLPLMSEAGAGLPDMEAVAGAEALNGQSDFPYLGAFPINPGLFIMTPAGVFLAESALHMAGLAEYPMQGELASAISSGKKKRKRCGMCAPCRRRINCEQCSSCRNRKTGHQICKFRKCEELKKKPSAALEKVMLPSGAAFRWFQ

For test [2], the target named is T2, Cxxc4 (mouse) (UniProt Q6NXI8).
T2 sequence: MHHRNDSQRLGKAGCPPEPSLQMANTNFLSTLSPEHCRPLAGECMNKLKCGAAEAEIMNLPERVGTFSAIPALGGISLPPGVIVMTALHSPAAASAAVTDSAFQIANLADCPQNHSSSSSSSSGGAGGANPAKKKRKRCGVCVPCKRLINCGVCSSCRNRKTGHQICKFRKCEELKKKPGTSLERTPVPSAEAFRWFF

In test [3] the target is Tet3 (mouse).

Results are given in words; binding and its absence hold for the method and conditions named. For part of these data: A result given as binding can be weak or reduced; the word gives no strength.

With Tet3 (mouse) (enzyme), the binding entry was “no binding” in test [1] and “binds” in test [2].

B1: Cxxc4 (protein, UniProt Q6NXI8 1-198)
chain: MHHRNDSQRLGKAGCPPEPSLQMANTNFLSTLSPEHCRPLAGECMNKLKCGAAEAEIMNLPERVGTFSAIPALGGISLPPGVIVMTALHSPAAASAAVTDSAFQIANLADCPQNHSSSSSSSSGGAGGANPAKKKRKRCGVCVPCKRLINCGVCSSCRNRKTGHQICKFRKCEELKKKPGTSLERTPVPSAEAFRWFF
Consider B1, for which the binding entry in test [3] was “binds”.
